Laboratory results published in US20250332300A1 (priority 2024, published 2025).

Experiment: general procedure: Fmoc solid-phase peptide synthesis; Fmoc-Rink Amide ProTide resin, Fmoc-Rink Amide AM resin, Fmoc-Sieber resin or Fmoc-Lys(Boc)-Wang resin; DIC/Oxyma Pure; HATU; PyAOP; DIPEA as base
Conditions: for isolated mass / isolated yield: whole synthesis; for conjugation yield: conjugation step; for step yield: late stage modification step

Q: Which isolated mass (scale 0.375 mmol, TFA salt) does the source give for “2,2′,2″-(10-(2-(((S)-5-((S)-2-((3S,6 S,9S,12S,15S,18S,21S,24S,27S)-9-((1H-indol-3-yl)methyl)-27-acetamido-6-cyclopropyl-12-((5-hydroxy-1H-indol-3-yl)methyl)-15-(4-(2-hydroxyacetamido)butyl)-24-(4-hydroxybenzyl)-21-(hydroxymethyl)-N,4,16,19-tetramethyl-5,8,11,14,17,20,23,26,31-nonaoxo-18-phenethyl-1,4,7,10,13,16,19,22,25-nonaazacyclohentriacontane-3-carboxamido)-3-(4-fluorophenyl)propanamido)-6-amino-6-oxohexyl)amino)-2-oxoethyl)-1,4,7,10-tetraazacyclododecane-1,4,7-triyl)triacetic acid TFA Salt” here?
A: 70.1 mg

Q: And the isolated yield (scale 0.375 mmol, TFA salt)?
A: 10.3% yield

Q: With “2,2′-(7-(4-(((S)-5-((S)-2-((3S,6S,9S,12S,15S,18S,21S,24S,27S)-9-((1H-indol-3-yl)methyl)-27-acetamido-15-(4-acetamidobutyl)-6-cyclopropyl-12-((5-hydroxy-1H-indol-3-yl)methyl)-24-(4-hydroxybenzyl)-21-(hydroxymethyl)-N,4,16,19-tetramethyl-5,8,11,14,17,20,23,26,31-nonaoxo-18-phenethyl-1,4,7,10,13,16,19,22,25-nonaazacyclohentriacontane-3-carboxamido)-3-(4-fluorophenyl)propanamido)-6-amino-6-oxohexyl)amino)-1-carboxy-4-oxobutyl)-1,4,7-triazonane-1,4-diyl)diacetic acid” as the substance, how does the conjugation yield (TFA salt) read?
A: 93.5% yield

Q: Which isolated mass (scale 0.375 mmol, TFA salt) does the source give for “2-(4-(((S)-5-((S)-2-((3S,6S,9S,12S,15S,18S,21S,24S,27S)-9-((1H-indol-3-yl)methyl)-15-(4-acetamidobutyl)-27-amino-12-((5-hydroxy-1H-indol-3-yl)methyl)-24-(4-hydroxybenzyl)-6-((S)-1-hydroxyethyl)-21-(hydroxymethyl)-N,4,16,19-tetramethyl-5,8,11,14,17,20,23,26,30-nonaoxo-18-phenethyl-1,4,7,10,13,16,19,22,25-nonaazacyclotriacontane-3-carboxamido)-3-(4-fluorophenyl)propanamido)-6-amino-6-oxohexyl)carbamoyl)piperazin-1-yl) acetic acid TFA salt” here?
A: 27.5 mg

Q: And the isolated yield (scale 0.375 mmol, TFA salt)?
A: 3.8% yield

Q: For “2-(4-(((S)-5-((S)-2-((3S,6S,9S,12S,15S,18S,21S,24S,27S)-9-((1H-indol-3-yl)methyl)-27-acetamido-15-(4-acetamidobutyl)-12-((5-hydroxy-1H-indol-3-yl)methyl)-24-(4-hydroxybenzyl)-6-((S)-1-hydroxyethyl)-21-(hydroxymethyl)-N,4,16,19-tetramethyl-5,8,11,14,17,20,23,26,30-nonaoxo-18-phenethyl-1,4,7,10,13,16,19,22,25-nonaazacyclotriacontane-3-carboxamido)-3-(4-fluorophenyl)propanamido)-6-(((R)-1,6-diamino-1-oxohexan-2-yl)amino)-6-oxohexyl)carbamoyl)piperazin-1-yl) acetic acid TFA salt”, which isolated mass (scale 0.375 mmol, TFA salt) is on record?
A: 32.5 mg

Q: And the isolated yield (scale 0.375 mmol, TFA salt)?
A: 4.2% yield

Q: For “2-((1E,3E)-5-((E)-1-(6-(((S)-5-((S)-2-((3S,6S,9S,12S,15S,18S,21S,24S,27S)-9-((1H-indol-3-yl)methyl)-27-acetamido-15-(4-acetamidobutyl)-6-cyclopropyl-12-((5-hydroxy-1H-indol-3-yl)methyl)-24-(4-hydroxybenzyl)-21-(hydroxymethyl)-N,4,16,19-tetramethyl-5,8,11,14,17,20,23,26,31-nonaoxo-18-phenethyl-1,4,7,10,13,16,19,22,25-nonaazacyclohentriacontane-3-carboxamido)-3-(4-fluorophenyl)propanamido)-6-amino-6-oxohexyl)amino)-6-oxohexyl)-3,3-dimethyl-5-sulfonatoindolin-2-ylidene)penta-1,3-dien-1-yl)-1-ethyl-3,3-dimethyl-3H-indol-1-ium-5-sulfonate”, which conjugation yield (TFA salt) is on record?
A: 66% yield

Q: For “3-(((3S,6S,9S,12S,15S,18S,21S,24S,27S)-9-((1H-indol-3-yl)methyl)-15-(4-acetamidobutyl)-6-cyclopropyl-3-(((S)-1-(((S)-1,6-diamino-1-oxohexan-2-yl)amino)-3-(4-fluorophenyl)-1-oxopropan-2-yl)(methyl)carbamoyl)-12-((5-hydroxy-1H-indol-3-yl)methyl)-24-(4-hydroxybenzyl)-21-(hydroxymethyl)-4,16,19-trimethyl-5,8,11,14,17,20,23,26,31-nonaoxo-18-phenethyl-1,4,7,10,13,16,19,22,25-nonaazacyclohentriacontan-27-yl)amino)-3-oxopropanoic acid TFA salt”, which step yield (TFA salt) is on record?
A: 39% yield

Q: Which step yield (TFA salt) does the source give for “(3R,6S,9S,12S,15S,18S,21S,24S,27S)-9-((1H-indol-3-yl)methyl)-27-amino-N—((S)-1-amino-3-(4-fluorophenyl)-1-oxopropan-2-yl)-6-cyclopropyl-12-((5-hydroxy-1H-indol-3-yl)methyl)-24-(4-hydroxybenzyl)-15,21-bis(hydroxymethyl)-N,4,16,19-tetramethyl-5,8,11,14,17,20,23,26-octaoxo-18-phenethyl-1-thia-4,7,10,13,16,19,22,25-octaazacyclohentriacont-29-yne-3-carboxamide TFA salt” here?
A: 46% yield

Q: Which results are given for “(3S,6S,9S,12S,15S,18S,21S,24S,27S)-9-((1H-indol-3-yl)methyl)-15-(4-acetamidobutyl)-27-amino-N—((S)-1-amino-3-(4-fluorophenyl)-1-oxopropan-2-yl)-6-cyclopropyl-12-((5-hydroxy-1H-indol-3-yl)methyl)-24-(4-hydroxybenzyl)-21-(hydroxymethyl)-N,4,16,19-tetramethyl-5,8,11,14,17,20,23,26,31-nonaoxo-18-phenethyl-1,4,7,10,13,16,19,22,25-nonaazacyclohentriacontane-3-carboxamide 5 TFA salt”?
A: isolated mass (scale 100 μmol, TFA salt): 15.4 mg; isolated yield (scale 100 μmol, TFA salt): 6.6% yield

Q: Which conjugation yield (TFA salt) does the source give for “(3S,6S,9S,12S,15S,18S,21S,24S,27S)-9-((1H-indol-3-yl)methyl)-15-(4-acetamidobutyl)-N—((S)-1-amino-3-(4-fluorophenyl)-1-oxopropan-2-yl)-27-(1-amino-3,6,9,12,15,18,21,24,27,30-decaoxatritriacontan-33-amido)-6-cyclopropyl-12-((5-hydroxy-1H-indol-3-yl)methyl)-24-(4-hydroxybenzyl)-21-(hydroxymethyl)-N,4,16,19-tetramethyl-5,8,11,14,17,20,23,26,31-nonaoxo-18-phenethyl-1,4,7,10,13,16,19,22,25-nonaazacyclohentriacontane-3-carboxamide TFA salt” here?
A: 26% yield

Q: Which conjugation yield (TFA salt) does the source give for “(3S,6S,9S,12S,15S,18S,21S,24S,27S)-9-((1H-indol-3-yl)methyl)-27-acetamido-15-(4-acetamidobutyl)” here?
A: 81% yield

Q: With “(3S,6S,9S,12S,15S,18S,21S,24S,27S)-9-((1H-indol-3-yl)methyl)-27-acetamido-15-(4-acetamidobutyl)-6-cyclopropyl-N—((S)-1-(((S)-1,6-diamino-1-oxohexan-2-yl)amino)-3-(4-fluorophenyl)-1-oxopropan-2-yl)-12-((5-hydroxy-1H-indol-3-yl)methyl)-24-(4-hydroxybenzyl)-21-(hydroxymethyl)-N,4,16,19-tetramethyl-5,8,11,14,17,20,23,26,31-nonaoxo-18-phenethyl-1,4,7,10,13,16,19,22,25-nonaazacyclohentriacontane-3-carboxamide TFA salt” as the substance, how does the step yield (on A74, TFA salt) read?
A: 90% yield

Q: What does the source list for “(3S,6S,9S,12S,15S,18S,21S,24S,27S)-9-((1H-indol-3-yl)methyl)-27-acetamido-15-(4-acetamidobutyl)-N-((2S,5S)-5-carbamoyl-1-(4-fluorophenyl)-3,11,45-trioxo-49-((3aS,4S,6aR)-2-oxohexahydro-1H-thieno[3,4-d]imidazol-4-yl)-14,17,20,23,26,29,32,35,38,41-decaoxa-4,10,44-triazanonatetracontan-2-yl)-12-((5-hydroxy-1H-indol-3-yl)methyl)-24-(4-hydroxybenzyl)-6-((S)-1-hydroxyethyl)-21-(hydroxymethyl)-N,4,16,19-tetramethyl-5,8,11,14,17,20,23,26,30-nonaoxo-18-phenethyl-1,4,7,10,13,16,19,22,25-nonaazacyclotriacontane-3-carboxamide”?
A: isolated mass (scale 125 μmol, TFA salt): 16.17 mg; isolated yield (scale 125 μmol, TFA salt): 5.1% yield

Q: With “(3S,6S,9S,12S,15S,18S,21S,24S,27S)-9-((1H-indol-3-yl)methyl)-27-acetamido-15-(4-acetamidobutyl)-N-((S)-1-amino-3-(4-fluorophenyl)-1-oxopropan-2-yl)-6-cyclopropyl-24-(4-hydroxybenzyl)-21-(hydroxymethyl)-N,4,16,19-tetramethyl-5,8,11,14,17,20,23,26,31-nonaoxo-12-pentyl-18-phenethyl-1,4,7,10,13,16,19,22,25-nonaazacyclohentriacontane-3-carboxamide” as the substance, how does the isolated mass (TFA salt) read?
A: 28.5 mg

Q: What about the isolated yield (scale of the general procedure 0.100 mmol, TFA salt) of the same substance?
A: 20% yield

Q: For “(3S,6S,9S,12S,15S,18S,21S,24S,27S)-9-((1H-indol-3-yl)methyl)-27-acetamido-15-(4-acetamidobutyl)-N—((S)-1-(((S)-1,6-diamino-1-oxohexan-2-yl)amino)-3-(4-fluorophenyl)-1-oxopropan-2-yl)-12-((5-hydroxy-1H-indol-3-yl)methyl)-24-(4-hydroxybenzyl)-6-((S)-1-hydroxyethyl)-21-(hydroxymethyl)-N,4,16,19-tetramethyl-5,8,11,14,17,20,23,26,30-nonaoxo-18-phenethyl-1,4,7,10,13,16,19,22,25-nonaazacyclotriacontane-3-carboxamide TFA salt”, which isolated mass (scale 0.375 mmol, TFA salt) is on record?
A: 38.2 mg

Q: What about the isolated yield (scale 0.375 mmol, TFA salt) of the same substance?
A: 5.7% yield
